Data reported in patent US9994525B2, “H3 antagonists containing phenoxypiperidine core structure” (RICHTER GEDEON NYRT., priority 2013, dated 2018).

Conditions: after either single or simultaneous administration of donepezil and Compound 11

SMILES: COc1cc2c(cc1OC)C(=O)C(CC1CCN(Cc3ccccc3)CC1)C2 (stereo not shown) [donepezil, reference compound]
- plasma and brain levels: did not change
